No constants are given. Whether binding was seen depends on the method and setting. Binding seen in cells or lysates may run through a third protein. These calls come from enrichment with a bait or labelling near it, and not all partners need be listed. Blank lines part the entries; values can stand above or below the binder they belong to.
Experiments:
[1] = target: GATA6 (human (endogenous in HPAF-II, AsPC-1, Miapaca-2)) (UniProt Q92908); assay: affinity purification with mass spectrometry; RIME of endogenous GATA6 as bait in cross-linked AsPC-1 cells (DSG and formaldehyde, sonicated chromatin), LC-MS/MS
[2] = target: GATA6 (human (endogenous in HPAF-II, AsPC-1, Miapaca-2)), Q92908; assay: as above; settings: remark: other sources report otherwise
[3] = target: T1, FOXA1 (human (endogenous in HPAF-II, AsPC-1, Miapaca-2)) (UniProt P55317); assay: affinity purification with mass spectrometry; RIME: cells cross-linked with 2 mM DSG and 1% formaldehyde, chromatin sonicated, endogenous FOXA1 immunoprecipitated overnight (Abcam ab5089 on Dynabeads), ten washes in RIPA buffer, LC-MS/MS, label-free quantification; HPAF-II, AsPC-1 and Miapaca-2 cells; three biological replicates and one pooled IgG control
T1 sequence: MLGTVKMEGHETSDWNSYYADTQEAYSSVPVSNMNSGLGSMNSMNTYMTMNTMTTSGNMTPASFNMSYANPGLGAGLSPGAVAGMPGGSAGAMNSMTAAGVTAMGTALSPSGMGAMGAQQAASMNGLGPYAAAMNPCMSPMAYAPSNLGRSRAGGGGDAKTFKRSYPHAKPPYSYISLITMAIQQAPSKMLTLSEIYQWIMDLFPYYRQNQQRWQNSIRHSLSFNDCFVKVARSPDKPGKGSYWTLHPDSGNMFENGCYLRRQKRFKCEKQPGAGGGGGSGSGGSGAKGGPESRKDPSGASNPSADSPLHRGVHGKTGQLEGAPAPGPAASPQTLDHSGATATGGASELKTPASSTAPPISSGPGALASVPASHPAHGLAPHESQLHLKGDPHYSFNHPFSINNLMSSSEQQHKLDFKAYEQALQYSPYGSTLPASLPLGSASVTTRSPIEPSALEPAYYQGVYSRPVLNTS

Amino acid sequences for entries named in this document (tags omitted).
UniProt Q92908: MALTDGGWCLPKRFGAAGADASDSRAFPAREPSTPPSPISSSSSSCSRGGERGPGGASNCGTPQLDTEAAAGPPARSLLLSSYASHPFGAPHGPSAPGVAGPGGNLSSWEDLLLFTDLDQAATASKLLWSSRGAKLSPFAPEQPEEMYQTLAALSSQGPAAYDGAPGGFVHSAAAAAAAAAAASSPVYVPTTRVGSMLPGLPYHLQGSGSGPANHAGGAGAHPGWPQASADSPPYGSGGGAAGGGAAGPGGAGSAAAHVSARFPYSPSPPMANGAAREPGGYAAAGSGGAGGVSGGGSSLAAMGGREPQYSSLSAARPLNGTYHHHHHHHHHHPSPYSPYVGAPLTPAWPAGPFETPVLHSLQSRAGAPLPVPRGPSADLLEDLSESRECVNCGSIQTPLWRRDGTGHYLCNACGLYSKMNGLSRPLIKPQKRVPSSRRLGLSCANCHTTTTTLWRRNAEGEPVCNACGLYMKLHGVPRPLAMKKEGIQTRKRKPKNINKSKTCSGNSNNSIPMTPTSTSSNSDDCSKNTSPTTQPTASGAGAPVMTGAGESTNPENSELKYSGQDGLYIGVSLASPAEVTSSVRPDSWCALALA

binding [3]: binds
B3: HNF4A (protein, UniProt P41235 1-474)
chain: MRLSKTLVDMDMADYSAALDPAYTTLEFENVQVLTMGNDTSPSEGTNLNAPNSLGVSALCAICGDRATGKHYGASSCDGCKGFFRRSVRKNHMYSCRFSRQCVVDKDKRNQCRYCRLKKCFRAGMKKEAVQNERDRISTRRSSYEDSSLPSINALLQAEVLSRQITSPVSGINGDIRAKKIASIADVCESMKEQLLVLVEWAKYIPAFCELPLDDQVALLRAHAGEHLLLGATKRSMVFKDVLLLGNDYIVPRHCPELAEMSRVSIRILDELVLPFQELQIDDNEYAYLKAIIFFDPDAKGLSDPGKIKRLRSQVQVSLEDYINDRQYDSRGRFGELLLLLPTLQSITWQMIEQIQFIKLFGMAKIDNLLQEMLLGGSPSDAPHAHHPLHPHLMQEHMGTNVIVANTMPTHLSNGQMCEWPRPRGQAATPETPQPSPPGGSGSEPYKLLPGAVATIVKPLSAIPQPTITKQEVI

binding [1]: binds
B4: HNF4G (protein, UniProt Q14541 1-408)
chain: MNTTDNGVNCLCAICGDRATGKHYGASSCDGCKGFFRRSIRKSHVYSCRFSRQCVVDKDKRNQCRYCRLRKCFRAGMKKEAVQNERDRISTRRSTFDGSNIPSINTLAQAEVRSRQISVSSPGSSTDINVKKIASIGDVCESMKQQLLVLVEWAKYIPAFCELPLDDQVALLRAHAGEHLLLGATKRSMMYKDILLLGNNYVIHRNSCEVEISRVANRVLDELVRPFQEIQIDDNEYACLKAIVFFDPDAKGLSDPVKIKNMRFQVQIGLEDYINDRQYDSRGRFGELLLLLPTLQSITWQMIEQIQFVKLFGMVKIDNLLQEMLLGGASNDGSHLHHPMHPHLSQDPLTGQTILLGPMSTLVHADQISTPETPLPSPPQGSGQEQYKIAANQASVISHQHLSKQKQL

Second part, the binder before the results:

B1: FOXA1 (protein, UniProt P55317 1-472)
chain: T1 sequence
binding [1]: binds

B2: HNF4A, P41235 1-474 (protein)
chain: B3 chain
binding [2]: binds
